Experimental data from publication PMC7819943, “Rice protein-binding microarrays: a tool to detect cis-acting elements near promoter regions in rice”.
The list shows a part of the results.

Amino acid sequences for entries named in this document (tags omitted).
UniProt Q0JBA9, entry or part of it: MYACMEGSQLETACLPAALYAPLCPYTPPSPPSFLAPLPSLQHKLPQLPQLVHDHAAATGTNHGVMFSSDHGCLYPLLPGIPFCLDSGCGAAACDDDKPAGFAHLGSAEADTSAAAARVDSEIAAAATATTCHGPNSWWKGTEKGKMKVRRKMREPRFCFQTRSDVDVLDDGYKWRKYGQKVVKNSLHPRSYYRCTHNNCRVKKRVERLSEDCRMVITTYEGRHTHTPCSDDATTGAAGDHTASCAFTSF

Biological target: OsWRKY34 (Oryza sativa, UniProt Q0JBA9 1-250)
Assay: protein-binding microarray (RPBM); PBS, 2% BSA, 51.3 ng/ul salmon testes DNA, 50 uM zinc acetate, 200 nM TF, 25 C, 1 h; high values mean tight binding
Details: protein: recombinant; tags: N-terminal polyhistidine and DsRed monomer fusion (pET32a); label: CyDye5-dUTP incorporated in the synthesized complementary strand; 3' TTTTT single-stranded linker to array surface; dsDNA, one strand shown
Outline: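 For the binding signal, per-feature fluorescence intensity was read in arbitrary units on an Axon 4000B scanner. Before scanning, a 2% BSA-blocked custom Agilent array made double-stranded with Cy5-dUTP was washed after 1 h at 25 °C with 200 nM protein and 50 µM zinc acetate. The proteins were Ni–NTA-purified transcription factors with N-terminal polyhistidine and DsRed fusions, expressed in E. coli BL21-CodonPlus.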

Sequence	binding signal
AATTGAAGATGTTTTTGCTGGTATTTTGGTACGTCATCCGCGGAGTCACCTAGTGCAG	8560 fluorescence intensity (a.u.)
GAAGCCATATCATCTTAATTGTTTTTAGCTCTTCTCTCATCGGAGTCACCTAGTGCAG	10300 fluorescence intensity (a.u.)
ATCCATAACCCTGACAGGTCTTGTTTTACTTTCTTTTCCACGGAGTCACCTAGTGCAG	8150 fluorescence intensity (a.u.)
GCGGCGTGTACTGCCTCGCCGTCGACGGCTGCCGCGGGTCCGGAGTCACCTAGTGCAG	8220 fluorescence intensity (a.u.)
ATTGACATTTTGTTGACAATACCATTATACACTCACATTTCGGAGTCACCTAGTGCAG	8300 fluorescence intensity (a.u.)
TCTTTTGTATAGCACTGTACCGTATACAACACTGAATACACGGAGTCACCTAGTGCAG	8080 fluorescence intensity (a.u.)
ACTTTTGACTTTTTACTATTGAGCTCTATCTATTCACTTACGGAGTCACCTAGTGCAG	13900 fluorescence intensity (a.u.)
TATCATCACATCTCATTTTCTCCTTCCATCGCAGATATTTCGGAGTCACCTAGTGCAG	9500 fluorescence intensity (a.u.)
TCCTTTCTTTCTTTCTTTCTGTTAGTTCCATTCAAGTATGCGGAGTCACCTAGTGCAG	9010 fluorescence intensity (a.u.)
TCCCATTGCTTGCTTTCCTCGACACACTCTTCAAAGAGAACGGAGTCACCTAGTGCAG	10000 fluorescence intensity (a.u.)
TGGTCGTTTTGACTTTCTTCTTGCAATGTTTGATTATTTGCGGAGTCACCTAGTGCAG	10100 fluorescence intensity (a.u.)
ATGAAGTTTGGATCGGTGGATGGTTTGGGGAAGTGCGGCACGGAGTCACCTAGTGCAG	9320 fluorescence intensity (a.u.)
TATTTGACTAGTCATGCAATATCTCTAGTGACTATACAAGCGGAGTCACCTAGTGCAG	11600 fluorescence intensity (a.u.)
TTGCTATGTATGGGTATTGCTCTGTATCATGTGGGTACAACGGAGTCACCTAGTGCAG	9970 fluorescence intensity (a.u.)
TGGATCACTCAATTGTTTTTTTTTTGTTTTTTCCTTTATTCGGAGTCACCTAGTGCAG	9740 fluorescence intensity (a.u.)
ATCGCTCTTGCCCTTTGCAGTCTCTGCTTTGTTTTAGAGACGGAGTCACCTAGTGCAG	10100 fluorescence intensity (a.u.)
TTCCTGGTTTTTCTGTTGAGGAAAAGATCGCCCCTTATCCCGGAGTCACCTAGTGCAG	10100 fluorescence intensity (a.u.)
TGAGGGGAGGGTGGTAAAGCATGTTGAGGACTTTACATTTCGGAGTCACCTAGTGCAG	10900 fluorescence intensity (a.u.)
TTGTCCACATTTAATACTCTATGCATGTGTCCAAACATTTCGGAGTCACCTAGTGCAG	8040 fluorescence intensity (a.u.)
CCTATCATTTGATTCATTGTTAAATATACTTTTATGTATACGGAGTCACCTAGTGCAG	8270 fluorescence intensity (a.u.)
GCCACTACTCATCACTACTTAAGATTCCCATGCAGGACTACGGAGTCACCTAGTGCAG	9170 fluorescence intensity (a.u.)

Looked up above:
ATGAAGTTTGGATCGGTGGATGGTTTGGGGAAGTGCGGCACGGAGTCACCTAGTGCAG | binding signal: 9320 fluorescence intensity (a.u.)
TCCCATTGCTTGCTTTCCTCGACACACTCTTCAAAGAGAACGGAGTCACCTAGTGCAG | binding signal: 10000 fluorescence intensity (a.u.)
TTGCTATGTATGGGTATTGCTCTGTATCATGTGGGTACAACGGAGTCACCTAGTGCAG | binding signal: 9970 fluorescence intensity (a.u.)
TCCTTTCTTTCTTTCTTTCTGTTAGTTCCATTCAAGTATGCGGAGTCACCTAGTGCAG | binding signal: 9010 fluorescence intensity (a.u.)

(further entries)

Sequence	binding signal
ATACAACTTCGTCTGGCGCCCTCAATCGATCTCGCTCTATCGGAGTCACCTAGTGCAG	9870 fluorescence intensity (a.u.)
TATTTTGGCATTGTGTCGTGTCTTGTCTTGTGTGCTGCAACGGAGTCACCTAGTGCAG	13800 fluorescence intensity (a.u.)
AAGCGTGTAGTTCATAATGCCGTGTAAACCATCAATCTGTCGGAGTCACCTAGTGCAG	8120 fluorescence intensity (a.u.)
GCCACTTCTCGTCTCCAGCCACGCGTGGTCCTTCACCTCCCGGAGTCACCTAGTGCAG	8740 fluorescence intensity (a.u.)
CTCTGTGTCCCCGGCCGTGTATTTTTTCCTATTATCCTCTCGGAGTCACCTAGTGCAG	13100 fluorescence intensity (a.u.)
ACTTTCTGTATCTATATATACGTAAGCACGTCCTGATTCTCGGAGTCACCTAGTGCAG	12200 fluorescence intensity (a.u.)
GCTTTGACTGCTCATGCGGTTACTCTCCACTCGTGAGGGGCGGAGTCACCTAGTGCAG	8640 fluorescence intensity (a.u.)
TTTTTTCTGGGATAAGTTTTTCTAGGGGTTTATTTTAGAACGGAGTCACCTAGTGCAG	9220 fluorescence intensity (a.u.)
TTTAGTCTTGATCGAGTTGGTTGGCTCTATTTGTGTTTGACGGAGTCACCTAGTGCAG	10900 fluorescence intensity (a.u.)
ATATTTTACTTCTCCCGTCTTCTTTCCCAATGGACACACACGGAGTCACCTAGTGCAG	8040 fluorescence intensity (a.u.)
AGGAAGCCCCATTCCATCCACACGTTTCAGCTGTCTTTCACGGAGTCACCTAGTGCAG	9490 fluorescence intensity (a.u.)
ACTCCCGTCGCCGTCAAGGTCGCCGAGGGGAGGGGAGGGGCGGAGTCACCTAGTGCAG	13400 fluorescence intensity (a.u.)
GATGATGTGTCCTAATCCACGCACTGCTCTGTTTAAATCTCGGAGTCACCTAGTGCAG	9090 fluorescence intensity (a.u.)
AGCTCGTGTGGTGTATGTTGTTGTGTGCTGCTAGCTAGCTCGGAGTCACCTAGTGCAG	10200 fluorescence intensity (a.u.)
CACACACGCAGACCTTATCCCTATGAGCACCTCCATATAACGGAGTCACCTAGTGCAG	8550 fluorescence intensity (a.u.)
ATGTAATTTACGTGAGTCTGTACACATGTTTCCTGCATTTCGGAGTCACCTAGTGCAG	10600 fluorescence intensity (a.u.)
GCGTTATCTTTGGTTCTTAAATCCTCCTTGTAATATGAATCGGAGTCACCTAGTGCAG	9690 fluorescence intensity (a.u.)
TGCTGCTCCCGCGCCCGCCGCCGCTCCCGCTCCCGCCTCACGGAGTCACCTAGTGCAG	9310 fluorescence intensity (a.u.)
ATCTCTTGTTTGTTGTGTGCGTTTTGGTTTCAGAAATCATCGGAGTCACCTAGTGCAG	13500 fluorescence intensity (a.u.)
TTTTCCCAGCCGCCACTGTTCCTGGGCCGCGAGGTGCTCGCGGAGTCACCTAGTGCAG	8870 fluorescence intensity (a.u.)
CCCCGACCCCGCCGCCGCCGACCTCTCTCCTCCGCGCCGCCGGAGTCACCTAGTGCAG	8240 fluorescence intensity (a.u.)

Sequence	binding signal
TATATATATATATATATATATAGAGGAACTGGATATTTGGCGGAGTCACCTAGTGCAG	14600 fluorescence intensity (a.u.)
TATTTTCCTACCATTTGATTTATTGTTAAATATACTTTTTCGGAGTCACCTAGTGCAG	10200 fluorescence intensity (a.u.)
GGAAACCGTTTCCAATTCTCCATCCTCTCTATCTTCCTCTCGGAGTCACCTAGTGCAG	10300 fluorescence intensity (a.u.)
TGATTTACGATCTGACTCGTTTGCTTTGGTATGATTCTCCCGGAGTCACCTAGTGCAG	8130 fluorescence intensity (a.u.)
CAATTATCACCCATGCATCATGCACGCAACTATCTATACCCGGAGTCACCTAGTGCAG	9040 fluorescence intensity (a.u.)
GCTGATGGGAAAGTTCAGCGTCGAGTATTTTGGGGCATTTCGGAGTCACCTAGTGCAG	10100 fluorescence intensity (a.u.)
GGCGTGTTGTGTTCGGGTGGGTGCTGCGCAGGCTGCTGTACGGAGTCACCTAGTGCAG	17300 fluorescence intensity (a.u.)
TCGTGGCGGATTTGGATTTTAACGGATGGGATCGTATGGACGGAGTCACCTAGTGCAG	9670 fluorescence intensity (a.u.)
GTGCACACTTGTACTTGTCATTGTACGTATTTTCGTCATGCGGAGTCACCTAGTGCAG	8260 fluorescence intensity (a.u.)
AAGGGATTTTGATATTTTACTTGTACTGTTTGACCACTCGCGGAGTCACCTAGTGCAG	11600 fluorescence intensity (a.u.)
AGTTCATAGCTAGTGTTTTATTCCGTTATCCGCCTAACTTCGGAGTCACCTAGTGCAG	14000 fluorescence intensity (a.u.)
TACTTCCATCTCATTTTGACCATTCTTAAGATTTTTTTAGCGGAGTCACCTAGTGCAG	9030 fluorescence intensity (a.u.)
CTGTGTGTTGGTCCTGATAGATGGAGGGTCAGTCGCTCACCGGAGTCACCTAGTGCAG	9830 fluorescence intensity (a.u.)
AAGTTTGTGTTGCAGCTGCCTATAAATATGTAGCTCGTTTCGGAGTCACCTAGTGCAG	8610 fluorescence intensity (a.u.)
TTTAAATAAAACGAATGGTCAAACGTTGATAAAAAGTCAACGGAGTCACCTAGTGCAG	13300 fluorescence intensity (a.u.)
TCCTCTCTGCTCTGCTTCCCCTGTCCACCACTATTAAACCCGGAGTCACCTAGTGCAG	8100 fluorescence intensity (a.u.)
CCACGCCTCTGCCTGCCTTGGGTCCCAACTCCCAATCACCCGGAGTCACCTAGTGCAG	10100 fluorescence intensity (a.u.)
CCCTTCACTTTGATTCTTCCTGTCTACCTAGGTTAAAAAACGGAGTCACCTAGTGCAG	9550 fluorescence intensity (a.u.)
GTGGAAAGACGAGGTCTCAAGCTTTATCCCGCCTTCAATCCGGAGTCACCTAGTGCAG	8050 fluorescence intensity (a.u.)
TTTTTCTACAGTTCTTTGCCATCGTTCAAACCTTCGCCACCGGAGTCACCTAGTGCAG	8770 fluorescence intensity (a.u.)
CCACTTTGTCCTCTTACCCCGCCACCACCGCCGCCTATATCGGAGTCACCTAGTGCAG	11300 fluorescence intensity (a.u.)

Sequence	binding signal
TTTCCGTCACCGTTTTAATCCCGATCGTATATGTTCAAATCGGAGTCACCTAGTGCAG	8510 fluorescence intensity (a.u.)
TTATTTTCCCATTTCTATCTCCTCGAGTCTTATCACCTGACGGAGTCACCTAGTGCAG	11000 fluorescence intensity (a.u.)
GCTTTGGAACTCCTTTAGATTATAATCCAACTCAATTCAACGGAGTCACCTAGTGCAG	8260 fluorescence intensity (a.u.)
CCTAAACCCTAGCCCTTTTAGTTGTTTATCGTTTTCTTGTCGGAGTCACCTAGTGCAG	8580 fluorescence intensity (a.u.)
AAATTGGATGTGCCTACTTCACGCTTTAAATTTCAATAATCGGAGTCACCTAGTGCAG	9780 fluorescence intensity (a.u.)
ACTCCATATCGCTTCGCGATTTTTTGTTGACCAAATCAATCGGAGTCACCTAGTGCAG	9610 fluorescence intensity (a.u.)
GACTCGTTCCTTTGTCCTAATCATTGGTCTTTACTCAGTTCGGAGTCACCTAGTGCAG	9040 fluorescence intensity (a.u.)
ATCCCGGCCTGCTCTTGCGCTTTGACTTTTTGTAGAGTTTCGGAGTCACCTAGTGCAG	18200 fluorescence intensity (a.u.)
ATTGGACTTGCGTTGACCTTCAAGCCGTTCCTGGCAATACCGGAGTCACCTAGTGCAG	11600 fluorescence intensity (a.u.)
ACGCCTTGTCTGCTGTATTAATCAGTTTTCTCCATTTGGACGGAGTCACCTAGTGCAG	9850 fluorescence intensity (a.u.)
TGTTGGAATAGTTGTAGCAGTATGAGAAGTTTTGATGTTTCGGAGTCACCTAGTGCAG	8280 fluorescence intensity (a.u.)
TGTCCTTGTCCATCGCTATCTTCAGGCCGCCAAGAAAGTCCGGAGTCACCTAGTGCAG	8120 fluorescence intensity (a.u.)
CCACGCCGTCGCCGTCACCTCTCATCGTGCCTTGGACGCCCGGAGTCACCTAGTGCAG	11000 fluorescence intensity (a.u.)
CACTCACCATCTTCTTGTCTTCTCTCTCTCCTCTCATCCTCGGAGTCACCTAGTGCAG	10000 fluorescence intensity (a.u.)
TATGCGGGGATGGGGATGGTGACGTTCGATTTTTTCTGCTCGGAGTCACCTAGTGCAG	10000 fluorescence intensity (a.u.)
AGTATTACCATCGTCCTTAAATAAGTACATTTTTAGCACACGGAGTCACCTAGTGCAG	9320 fluorescence intensity (a.u.)
TGGTTTTATGCTCTCCAGCTACGTTAGTATTTTTACAGCACGGAGTCACCTAGTGCAG	10100 fluorescence intensity (a.u.)
CTCATGGCCATTTACTTGTTCTTCTTCCTGCTCCATGCTTCGGAGTCACCTAGTGCAG	9500 fluorescence intensity (a.u.)
GTGGGCGGGGTGTATAGTAGTATAGTTTTAGAGCCGGTGACGGAGTCACCTAGTGCAG	12700 fluorescence intensity (a.u.)
GGTTCCAATTCGTCGCCTGATACTCCGATTCGAGTTCTTGCGGAGTCACCTAGTGCAG	12700 fluorescence intensity (a.u.)
TTCATCTCATCTCTCACGCCGTCTCCGTTCACATCCTTATCGGAGTCACCTAGTGCAG	14100 fluorescence intensity (a.u.)
